{"source": "PubChem BioAssay AID1508588 (Peter MacCallum Cancer Centre, 2020)", "aim": "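Which gene losses make BRAF-mutant melanoma cells more responsive to vemurafenib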 (primary screen)", "system": "human WM266.4 melanoma cells (BRAF V600 mutant)", "knock-down reagent": "siRNA pool against human genes, 40 nM", "time to read-out": "96 h from transfection to read-out", "challenge": "vemurafenib 300 nM (about IC25), added 48 h after transfection, for 48 h; comparison arm got DMSO vehicle only", "read-out": "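Cell gain (DAPI nuclei at end minus before drug, mean of two replicates) and medium lactate by absorbance per cell, both as ratio to non-targeting siRNA, also grouped into fold-change classes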", "direction": "cell gain with vemurafenib: higher = more cell gain than with non-targeting siRNA; lactate per cell with vemurafenib: higher = more lactate made per cell", "active means": "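Enhancement is called by pairing each knock-down's vehicle-arm and drug-arm fold-change classes for viability or glycolysis; which class combinations qualify is not given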", "calls": "active = enhances vemurafenib effect; inactive = no enhancement seen", "note": "Here is an unselected part of about 18,000 deposited reagents. 790 of them (4.4%) count as active. 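Calls rest on a combination of fold-change classes in drug and vehicle arms, not all shown here.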 Unmarked entries are inactive."}
{"gene": "ASTN2", "cell gain with vemurafenib": 0.38, "lactate per cell with vemurafenib": 0.91}
{"gene": "SLAMF7", "cell gain with vemurafenib": 0.76, "lactate per cell with vemurafenib": 0.5}
{"gene": "YJEFN3", "cell gain with vemurafenib": 0.91, "lactate per cell with vemurafenib": 1.11}
{"gene": "BBX", "cell gain with vemurafenib": 0.14, "lactate per cell with vemurafenib": 1.98}
{"gene": "NKIRAS2", "cell gain with vemurafenib": 0.8, "lactate per cell with vemurafenib": 0.8}
{"gene": "IPO9", "cell gain with vemurafenib": "0.54 (active)", "lactate per cell with vemurafenib": 0.32}
{"gene": "CXCR6", "cell gain with vemurafenib": 0.39, "lactate per cell with vemurafenib": 1.56}
{"gene": "CLDND1", "cell gain with vemurafenib": "0.64 (active)", "lactate per cell with vemurafenib": 0.68}
{"gene": "LURAP1L", "cell gain with vemurafenib": 0.9, "lactate per cell with vemurafenib": 0.7}
{"gene": "BACC1", "cell gain with vemurafenib": 0.54, "lactate per cell with vemurafenib": 1.48}
{"gene": "OAF", "cell gain with vemurafenib": 0.24, "lactate per cell with vemurafenib": 0.84}
{"gene": "SFTPC", "cell gain with vemurafenib": 1.23, "lactate per cell with vemurafenib": 0.43}
{"gene": "DCDC2", "cell gain with vemurafenib": 0.54, "lactate per cell with vemurafenib": 0.67}
{"gene": "KRTAP17-1", "cell gain with vemurafenib": 1.02, "lactate per cell with vemurafenib": 0.73}
{"gene": "OR2F1", "cell gain with vemurafenib": 0.34, "lactate per cell with vemurafenib": 0.62}
{"gene": "ZNF273", "cell gain with vemurafenib": 0.14, "lactate per cell with vemurafenib": 1.57}
{"gene": "TACSTD2", "cell gain with vemurafenib": 0.53, "lactate per cell with vemurafenib": 0.6}
{"gene": "CX3CL1", "cell gain with vemurafenib": 0.98, "lactate per cell with vemurafenib": 0.84}
{"gene": "MGLL", "cell gain with vemurafenib": 0.64, "lactate per cell with vemurafenib": 0.92}
{"gene": "DYDC1", "cell gain with vemurafenib": 0.82, "lactate per cell with vemurafenib": 0.86}
{"gene": "CROCC", "cell gain with vemurafenib": 0.51, "lactate per cell with vemurafenib": 0.61}
{"gene": "NHLH2", "cell gain with vemurafenib": 0.52, "lactate per cell with vemurafenib": 0.79}
{"gene": "PPFIBP1", "cell gain with vemurafenib": 0.47, "lactate per cell with vemurafenib": 1}
{"gene": "CYB5B", "cell gain with vemurafenib": 0.73, "lactate per cell with vemurafenib": 0.98}
{"gene": "MEIOC", "cell gain with vemurafenib": 0.82, "lactate per cell with vemurafenib": 1.37}
{"gene": "FAR2", "cell gain with vemurafenib": 0.53, "lactate per cell with vemurafenib": 0.82}
{"gene": "GDF6", "cell gain with vemurafenib": 0.68, "lactate per cell with vemurafenib": 0.74}
{"gene": "MORC1", "cell gain with vemurafenib": 0, "lactate per cell with vemurafenib": 3.08}
{"gene": "CBLB", "cell gain with vemurafenib": 0.99, "lactate per cell with vemurafenib": 0.82}
{"gene": "PLA2G4F", "cell gain with vemurafenib": 0.86, "lactate per cell with vemurafenib": 1.25}
{"gene": "CARS2", "cell gain with vemurafenib": 1.06, "lactate per cell with vemurafenib": 0.58}
{"gene": "EYA1", "cell gain with vemurafenib": 0.61, "lactate per cell with vemurafenib": 1.04}
{"gene": "FXN", "cell gain with vemurafenib": 1.01, "lactate per cell with vemurafenib": 1.01}
{"gene": "BAHCC1", "cell gain with vemurafenib": 0.7, "lactate per cell with vemurafenib": 1.08}
{"gene": "MUTYH", "cell gain with vemurafenib": 0.99, "lactate per cell with vemurafenib": 1.25}
{"gene": "MTERF4", "cell gain with vemurafenib": 0.12, "lactate per cell with vemurafenib": 1.06}
{"gene": "ATP11C", "cell gain with vemurafenib": 0.35, "lactate per cell with vemurafenib": 0.87}
{"gene": "EIF3B", "cell gain with vemurafenib": 0.28, "lactate per cell with vemurafenib": 0.59}
{"gene": "MMP19", "cell gain with vemurafenib": 0.57, "lactate per cell with vemurafenib": 1.03}
{"gene": "DCPH1", "cell gain with vemurafenib": -0.27, "lactate per cell with vemurafenib": 1.7}
{"gene": "MAP2K5", "cell gain with vemurafenib": 0.47, "lactate per cell with vemurafenib": 0.98}
{"gene": "COA4", "cell gain with vemurafenib": 0.39, "lactate per cell with vemurafenib": 1.58}
{"gene": "SUPT4H1", "cell gain with vemurafenib": 0.4, "lactate per cell with vemurafenib": 1.08}
{"gene": "ZNF444", "cell gain with vemurafenib": 0.66, "lactate per cell with vemurafenib": 0.86}
{"gene": "SERPINA11", "cell gain with vemurafenib": 0.62, "lactate per cell with vemurafenib": 0.96}
{"gene": "CHST13", "cell gain with vemurafenib": 0.85, "lactate per cell with vemurafenib": 0.81}
{"gene": "CARD17P", "cell gain with vemurafenib": 0.4, "lactate per cell with vemurafenib": 1.25}
{"gene": "OR6C76", "cell gain with vemurafenib": 0.26, "lactate per cell with vemurafenib": 0.78}
{"gene": "RAPGEFL1", "cell gain with vemurafenib": 0.69, "lactate per cell with vemurafenib": 1}
{"gene": "CLHC1", "cell gain with vemurafenib": 0.29, "lactate per cell with vemurafenib": 1.22}
{"gene": "RSL1D1", "cell gain with vemurafenib": 0.39, "lactate per cell with vemurafenib": 1.88}
{"gene": "HSPA13", "cell gain with vemurafenib": 0.39, "lactate per cell with vemurafenib": 1.8}

Reformatted: results already given
CARS2
- cell gain with vemurafenib: 1.06
- lactate per cell with vemurafenib: 0.58

EYA1
- cell gain with vemurafenib: 0.61
- lactate per cell with vemurafenib: 1.04

FXN
- cell gain with vemurafenib: 1.01
- lactate per cell with vemurafenib: 1.01

BAHCC1
- cell gain with vemurafenib: 0.7
- lactate per cell with vemurafenib: 1.08

MUTYH
- cell gain with vemurafenib: 0.99
- lactate per cell with vemurafenib: 1.25
